# Measurements taken from PMC7819943, “Rice protein-binding microarrays: a tool to detect cis-acting elements near promoter regions in rice”.
# Chains of the proteins cited; added tags and fusions are not shown.
# UniProt Q0JBA9, entry or part of it: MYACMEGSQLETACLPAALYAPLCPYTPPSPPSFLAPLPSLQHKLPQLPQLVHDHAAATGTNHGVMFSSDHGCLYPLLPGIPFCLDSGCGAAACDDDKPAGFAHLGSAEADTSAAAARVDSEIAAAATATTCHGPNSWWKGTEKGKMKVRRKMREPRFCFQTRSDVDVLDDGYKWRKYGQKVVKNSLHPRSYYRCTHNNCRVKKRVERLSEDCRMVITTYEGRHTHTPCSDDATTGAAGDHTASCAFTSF
# Some of the results follow.
# Target: OsWRKY34 (Oryza sativa, UniProt Q0JBA9 1-250)
# Assay: protein-binding microarray (RPBM); PBS, 2% BSA, 51.3 ng/ul salmon testes DNA, 50 uM zinc acetate, 200 nM TF, 25 C, 1 h; high values mean tight binding
# Conditions: protein: recombinant; tags: N-terminal polyhistidine and DsRed monomer fusion (pET32a); label: CyDye5-dUTP incorporated in the synthesized complementary strand; 3' TTTTT single-stranded linker to array surface; dsDNA, one strand shown
# Method in brief: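 Polyhistidine-tagged DsRed fusions of transcription factors, joined at the N-terminus, were expressed in E. coli BL21-CodonPlus and isolated on Ni–NTA. They were incubated at 200 nM for 1 h at 25 °C on a custom Agilent array, double-stranded and BSA-blocked, in PBS with 2% BSA, salmon testes DNA and 50 µM zinc acetate. The binding signal is per-feature fluorescence intensity (arbitrary units) read on an Axon 4000B scanner after washing.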
row,Sequence,binding signal
1,AAGCTTCACTCATATTCACTTTACTCACCACACATCACACCGGAGTCACCTAGTGCAG,9540 fluorescence intensity (a.u.)
2,GGTTTCAAGGTATTCCACTACTTCCTCTATCCACAATTATCGGAGTCACCTAGTGCAG,8120 fluorescence intensity (a.u.)
3,TCATGTCTTGTGATCCTTTTCTTTTATATAGCTTTGTCTACGGAGTCACCTAGTGCAG,13000 fluorescence intensity (a.u.)
4,TTTTATGGTTTATTCTCTTTCTTTTTTGTGAATGGAAAATCGGAGTCACCTAGTGCAG,8530 fluorescence intensity (a.u.)
5,GATTTAATTATATAGTCCCACATTTCTCTTGGATTGTTTACGGAGTCACCTAGTGCAG,9180 fluorescence intensity (a.u.)
6,TTGGTTGTGTGTGTGCCGCCGCGAGCCCGTGACGGCGCCCCGGAGTCACCTAGTGCAG,9390 fluorescence intensity (a.u.)
7,CGTCCGGTCTTACCCTTGCGGTCGTTTTTTCCATAAATTTCGGAGTCACCTAGTGCAG,11700 fluorescence intensity (a.u.)
8,GCGGTGGAGAGTGGTGGGAGGTTGGGGAGAAGGCGGCGGCCGGAGTCACCTAGTGCAG,14800 fluorescence intensity (a.u.)
9,TTCGTGGATGGGGTGGGCTCTTTCTCACTGTTATATTGTCCGGAGTCACCTAGTGCAG,27500 fluorescence intensity (a.u.)
10,AAGCCTTATTCAGTTTGTTTCCACTTTCAACCTTACTAAACGGAGTCACCTAGTGCAG,12400 fluorescence intensity (a.u.)
11,TCTTTACCTTTCTCTATATTGTTGCCGCCACATTAAATTGCGGAGTCACCTAGTGCAG,8080 fluorescence intensity (a.u.)
12,TATTTCTTTCTCTTTTGTTTCAACGTACACTCTATACTATCGGAGTCACCTAGTGCAG,10800 fluorescence intensity (a.u.)
13,GGGGTGGGCGTTCGGTCTGACCGAAAAATTCGGTCTCGGTCGGAGTCACCTAGTGCAG,9440 fluorescence intensity (a.u.)
14,AATTCCGGCCCAATAGTCACTTGTGTTGGCCACTTCGCCTCGGAGTCACCTAGTGCAG,9010 fluorescence intensity (a.u.)
15,GCGTCATCCGCGAGTAGTACTTCTCGATCACCTGCCTCGACGGAGTCACCTAGTGCAG,9330 fluorescence intensity (a.u.)
16,ACAAAAGTTTATCGTAGACGTGCTAGCTTACTCATACGCCCGGAGTCACCTAGTGCAG,9550 fluorescence intensity (a.u.)
17,GCGCCGCCGTCCACCATGAGCTCCGGCTGCCTCCTCCGCGCGGAGTCACCTAGTGCAG,11800 fluorescence intensity (a.u.)
18,GGGTTGCAGTTGTTCGTAAGATACACGGTGTTACTTCGCACGGAGTCACCTAGTGCAG,10400 fluorescence intensity (a.u.)
19,CGATTTCTCTATCCGTTCCTTTTCTTTTTTCTTTTTTTTTCGGAGTCACCTAGTGCAG,14900 fluorescence intensity (a.u.)
20,CATTGACTCGGGAGCTAGGGTTTCTACGGGTTGTGGGCTACGGAGTCACCTAGTGCAG,8340 fluorescence intensity (a.u.)
21,TATTACCGTTCTTCCTTTTAGTCACTTTCCAAATTGTAAGCGGAGTCACCTAGTGCAG,8250 fluorescence intensity (a.u.)
22,TCCACCCTAAAATTTTTCACCCTATCACATCGAACGTTTGCGGAGTCACCTAGTGCAG,8370 fluorescence intensity (a.u.)
23,GCCGGCCTGGGAGGCCGAAGGTTGGGGATGACAGGTGGGGCGGAGTCACCTAGTGCAG,8920 fluorescence intensity (a.u.)

# Copied from the list.
# For binding signal, TATTTCTTTCTCTTTTGTTTCAACGTACACTCTATACTATCGGAGTCACCTAGTGCAG is entered as 10800 fluorescence intensity (a.u.)
# For binding signal, GGTTTCAAGGTATTCCACTACTTCCTCTATCCACAATTATCGGAGTCACCTAGTGCAG is entered as 8120 fluorescence intensity (a.u.)
